## Primary screen of a compound library

Chains of the proteins cited; added tags and fusions are not shown. Residues count along the entry.
UniProt P9WNZ1, whole entry: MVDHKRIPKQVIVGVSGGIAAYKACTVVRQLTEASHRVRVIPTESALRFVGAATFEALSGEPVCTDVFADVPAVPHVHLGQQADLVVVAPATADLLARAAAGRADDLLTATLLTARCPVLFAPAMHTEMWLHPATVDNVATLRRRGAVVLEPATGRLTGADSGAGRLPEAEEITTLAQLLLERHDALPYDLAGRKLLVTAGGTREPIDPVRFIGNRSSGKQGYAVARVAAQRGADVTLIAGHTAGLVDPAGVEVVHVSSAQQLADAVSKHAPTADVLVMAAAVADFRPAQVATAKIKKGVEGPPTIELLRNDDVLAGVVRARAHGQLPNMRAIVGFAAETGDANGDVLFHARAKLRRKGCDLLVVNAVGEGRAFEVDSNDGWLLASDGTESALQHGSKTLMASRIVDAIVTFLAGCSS
UniProt A4I591, 1-473: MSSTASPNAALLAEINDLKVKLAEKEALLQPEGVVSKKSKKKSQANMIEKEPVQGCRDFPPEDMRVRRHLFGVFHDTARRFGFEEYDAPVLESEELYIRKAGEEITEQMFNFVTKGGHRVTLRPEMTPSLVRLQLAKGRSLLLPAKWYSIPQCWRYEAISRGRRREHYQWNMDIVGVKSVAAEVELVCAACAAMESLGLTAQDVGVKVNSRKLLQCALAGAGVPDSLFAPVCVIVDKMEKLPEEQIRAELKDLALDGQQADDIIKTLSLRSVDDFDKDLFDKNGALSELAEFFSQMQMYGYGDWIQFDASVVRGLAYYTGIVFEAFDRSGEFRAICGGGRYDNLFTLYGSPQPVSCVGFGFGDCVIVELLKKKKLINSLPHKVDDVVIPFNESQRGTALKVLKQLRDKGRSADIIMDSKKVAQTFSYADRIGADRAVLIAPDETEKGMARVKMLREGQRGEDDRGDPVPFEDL

Source: ChEMBL document CHEMBL3988442, “University of Dundee, Small-Polar-MMV Screening Library” (2021).

CoaBC: 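Coenzyme A biosynthesis protein CoaBC, Mycobacterium tuberculosis (UniProt P9WNZ1). Enzyme assay of CoaBC with a phosphate dye (Biomol Green) read at 650 nm. Concentration: 30 µM. Higher reads as stronger inhibition, judged from the few compounds that gave an IC50. Most strong results did not repeat in a second test. About 67,000 compounds were tested under these conditions; 0.06% (about 40) showed 50% or more at least once.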
LiHisRS: 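Histidine-tRNA ligase, Leishmania infantum (UniProt A4I591). Enzyme assay of histidyl-tRNA synthetase; the read-out is not stated. Concentration: 30 µM. The record gives no direction; compounds that gave an IC50 in retests scored well above the rest, so higher reads as stronger inhibition. The assay is labelled LdHisRS but filed under L. infantum. About 69,000 compounds were tested under these conditions; 0.6% (about 410) showed 50% or more at least once.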
Leishmania in macrophages: 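Cell assay of Leishmania donovani living inside macrophages; the read-out is not stated. Tested at 30 µM. Direction is inferred from retests: higher values go with stronger inhibition. About 69,000 compounds were tested under these conditions; 1.5% (about 1,000) showed 50% or more at least once.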

Values are the deposited “Percent Effect”, in %. How 0% and 100% were set is not recorded. Most values in the screen are low, and negative values occur. Compounds were drawn at random from those tested, without regard to their results. Two or more numbers in one place are separate tests of the same structure; such repeats can differ widely.

{"compound": "Cc1cnn(CC2CCCCN2Cc2nc(-c3ccoc3)no2)c1", "stereo": "stereo not drawn", "CoaBC": 6.524, "LiHisRS": 21.43, "Leishmania in macrophages": 15.98}
{"compound": "CCN(C)S(=O)(=O)NCC(O)c1c(Cl)cccc1Cl", "stereo": "stereo not drawn", "CoaBC": -21.61, "LiHisRS": -1.124, "Leishmania in macrophages": 41.58}
{"compound": "CS(=O)(=O)NC1CCN(C(=O)c2ccc(Br)o2)C1", "stereo": "stereo not drawn", "CoaBC": 4.121, "LiHisRS": 6.25, "Leishmania in macrophages": 38.61}
{"compound": "COc1ccccc1N1CC(NC(=O)Cn2cc(C)nn2)CC1=O", "stereo": "stereo not drawn", "CoaBC": -3.398, "LiHisRS": 8.571, "Leishmania in macrophages": 4.572}
{"compound": "O=C(O)C(F)(F)F.[H][C@@]12CCN(c3ccncn3)C[C@]1([H])O[C@@H](C(=O)NCc1ccco1)C2", "Leishmania in macrophages": 21.74}
{"compound": "Nc1nccnc1C(=O)N(Cc1ccco1)CC1CCCO1", "stereo": "stereo not drawn", "CoaBC": 7.495, "LiHisRS": 12.07, "Leishmania in macrophages": -17.77}
{"compound": "Cn1c(=O)n(C)c2cc(C3SCC(=O)Nc4ccsc43)ccc21", "stereo": "stereo not drawn", "CoaBC": -8.21, "LiHisRS": 29.13, "Leishmania in macrophages": -13.82}
{"compound": "Cc1cn[nH]c1C1COCCN1S(=O)(=O)c1cn[nH]c1", "stereo": "stereo not drawn", "CoaBC": 1.36, "LiHisRS": 6.207, "Leishmania in macrophages": 11.62}
{"compound": "Cc1nn(C)cc1-c1cc(C(F)(F)F)nc(NC2CCCCC2)n1", "CoaBC": 4.027, "LiHisRS": 5.747, "Leishmania in macrophages": 26.92}
{"compound": "CS(=O)(=O)N1CCN(C(=O)c2[nH]c3ccc(Cl)cc3c2Cl)CC1", "CoaBC": -4.126, "LiHisRS": 11.4, "Leishmania in macrophages": 26.35}
{"compound": "CCn1nc2c(cc1=O)CN(c1ncnc3ccsc13)CC2", "CoaBC": 7.393, "LiHisRS": 58.56, "Leishmania in macrophages": 42.12}
{"compound": "CN1C(=O)CC[C@]12CC[C@@H](NCc1ccsc1)CC2", "CoaBC": 4.247, "LiHisRS": 21.15}
{"compound": "CC(Oc1cc(Cl)cc(Cl)c1)C(=O)NCCOCC(N)=O", "stereo": "stereo not drawn", "CoaBC": 1.699, "LiHisRS": 0, "Leishmania in macrophages": 16.67}
{"compound": "Cc1cccc(-c2nnn3c2COC(CNCc2nccs2)C3)c1", "stereo": "stereo not drawn", "CoaBC": 11.68, "LiHisRS": 9.735}
{"compound": "Cc1cc(CNC(=O)CC2CN(C(=O)OC(C)(C)C)C2)ccc1F", "CoaBC": -1.463, "LiHisRS": 11.2, "Leishmania in macrophages": 16.1}
{"compound": "CN(C)CC(=O)N1CC[C@H]2OCC[C@@]2(COCC2CC2)C1", "LiHisRS": 8.547}
{"compound": "Cn1ccc(C(=O)NCCOc2ccc3c(c2)CCC3)cc1=O", "CoaBC": 1.339, "LiHisRS": 6.25, "Leishmania in macrophages": 17.1}
{"compound": "Fc1ccccc1CN1C[C@@H]2OCCN(c3ncccn3)[C@@H]2C1", "CoaBC": -1.015, "LiHisRS": 11.76}
{"compound": "CN1CC(C(=O)Nc2ccc(OCC(F)(F)C(F)F)nc2)CC1=O", "stereo": "stereo not drawn", "CoaBC": -37.06, "LiHisRS": 12.5, "Leishmania in macrophages": 28.11}
{"compound": "CC(C)n1ccc(CN2CCN(c3cc(NC4CC4)nc(N)n3)CC2)c1", "CoaBC": -18.93, "LiHisRS": 21.69, "Leishmania in macrophages": 1.703}
{"compound": "CN1CCOCC2(CCCN(C(=O)c3cn(C)cn3)C2)C1.O=C(O)C(F)(F)F", "stereo": "stereo not drawn", "Leishmania in macrophages": 20.84}
{"compound": "Cc1cc(NC(=O)NCC(c2ccc(C)o2)N2CCOCC2)n(C)n1", "stereo": "stereo not drawn", "CoaBC": -20.18, "LiHisRS": 5.357, "Leishmania in macrophages": -16.91}
{"compound": "O=C(Nc1ccc(CN2CCOCC2)cc1)c1nccn2ccnc12", "CoaBC": 5.179, "LiHisRS": -2.74, "Leishmania in macrophages": -15.13}
{"compound": "CCOc1ncnc2c1CCN(S(=O)(=O)CC)CC2", "CoaBC": 1.057, "LiHisRS": 1.754, "Leishmania in macrophages": "9.924 and -10.01"}
{"compound": "O=C(O)C(F)(F)F.[H][C@@]12CCCO[C@]1([H])[C@@H](OC)CN2C(=O)c1cccnc1", "Leishmania in macrophages": 4.595}
{"compound": "COc1ccccc1C1CNC(=O)c2nc(-c3ncc[nH]3)[nH]c2C1", "stereo": "stereo not drawn", "CoaBC": 9.168, "LiHisRS": 25, "Leishmania in macrophages": 39.7}
{"compound": "Cc1cccc2[nH]c(C3CCN(C(=O)c4cnc[nH]c4=O)CC3)nc12", "CoaBC": 2.051, "LiHisRS": 12, "Leishmania in macrophages": -1.308}

3 of the entries, repeated:

With O=C(O)C(F)(F)F.[H][C@@]12CCN(c3ccncn3)C[C@]1([H])O[C@@H](C(=O)NCc1ccco1)C2 the screen gave Leishmania in macrophages: 21.74%.
With Cn1c(=O)n(C)c2cc(C3SCC(=O)Nc4ccsc43)ccc21 (stereo not drawn) the screen gave CoaBC: -8.21%; LiHisRS: 29.13%; Leishmania in macrophages: -13.82%.
With Cc1cn[nH]c1C1COCCN1S(=O)(=O)c1cn[nH]c1 (stereo not drawn) the screen gave CoaBC: 1.36%; LiHisRS: 6.207%; Leishmania in macrophages: 11.62%.